These results are taken from article doi:10.1101/2022.08.30.505862.

Protein sequences, listed by entry. Tags and fused reporters are not part of them. Residues count along the entry.
UniProt Q14498, 247-332 H258A: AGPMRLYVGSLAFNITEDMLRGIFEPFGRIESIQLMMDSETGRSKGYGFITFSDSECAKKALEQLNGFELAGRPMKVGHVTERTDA
UniProt Q14498, 247-332 R289A: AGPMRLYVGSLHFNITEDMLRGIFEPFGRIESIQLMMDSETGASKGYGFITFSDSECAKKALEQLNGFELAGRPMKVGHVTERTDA
UniProt Q14498, 143-332: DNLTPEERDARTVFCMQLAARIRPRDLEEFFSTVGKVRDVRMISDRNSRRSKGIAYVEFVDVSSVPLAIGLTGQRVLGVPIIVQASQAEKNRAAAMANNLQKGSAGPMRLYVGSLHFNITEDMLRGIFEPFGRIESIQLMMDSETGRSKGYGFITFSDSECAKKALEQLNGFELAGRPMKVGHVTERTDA

The target of one data set is RBM39 RRM2 H258A (UniProt Q14498). The data set can be described thus: ITC. Particulars: Kd only in figure.
Another data set deals with RBM39 RRM2 R289A (UniProt Q14498). The data set can be described thus: ITC. Particulars: Kd only in figure.
The target in a further data set is GB1-RBM39-RRM12 (UniProt Q14498). The data set is described as follows: NMR CSP. Conditions: letters put together from the description.

For part of these data: A weaker result is weaker than the reference pair of the same experiment. For part of these data: The exact form of at least one protein or probe is not confirmed. For part of these data: At least one verdict was read from the data and is not stated in words by the source.

In the case of AGCUUUG [AGCUUUG ssRNA], the binding result with RBM39 RRM2 H258A and in the data set with RBM39 RRM2 R289A was “binds more weakly” throughout.
Regarding “GGGAUUUCCCCAAAUGUGGGAAACUCCC [U1 snRNA SL3]”, the binding result with GB1-RBM39-RRM12 is listed as “binds”.
